Inconclusive results, whose numbers are uncertain, are shown with a selection of clear calls. For part of these data: A potency beside an inconclusive call is a rough fit, not a confirmed value. Activity calls are given as the source filed them. The calls were made as follows: active = hit-call score of the fitted dose curve at least 0.9, where 1 is the maximum; inconclusive = response in the unintended direction; inactive = score below 0.9.
Legend:
[1] = target: bovine Estrogen Receptor (ER), ESR1 (gene 407238) (UniProt P49884); experiment: NVS_NR_bER: NovaScreen (NVS) Nuclear Receptor Binding Assay for bovine Estrogen Receptor (ER) (AID 2283345);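 also: actives lower the bound radioligand count which means they displace the ER ligand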
Procedure, shortened: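 Cell-free radioligand binding with receptor from bovine uterine membranes, read by scintillation counting 18 h after dosing. Loss of specific binding was scored against DMSO; primary screen at 25 uM in duplicate, actives then run as concentration series.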

Sequences of proteins named here, by UniProt entry; tags and fusion partners are left off. A change or cut given only in a name is not applied to a line headed by its entry.
UniProt P49884, whole entry, looked up: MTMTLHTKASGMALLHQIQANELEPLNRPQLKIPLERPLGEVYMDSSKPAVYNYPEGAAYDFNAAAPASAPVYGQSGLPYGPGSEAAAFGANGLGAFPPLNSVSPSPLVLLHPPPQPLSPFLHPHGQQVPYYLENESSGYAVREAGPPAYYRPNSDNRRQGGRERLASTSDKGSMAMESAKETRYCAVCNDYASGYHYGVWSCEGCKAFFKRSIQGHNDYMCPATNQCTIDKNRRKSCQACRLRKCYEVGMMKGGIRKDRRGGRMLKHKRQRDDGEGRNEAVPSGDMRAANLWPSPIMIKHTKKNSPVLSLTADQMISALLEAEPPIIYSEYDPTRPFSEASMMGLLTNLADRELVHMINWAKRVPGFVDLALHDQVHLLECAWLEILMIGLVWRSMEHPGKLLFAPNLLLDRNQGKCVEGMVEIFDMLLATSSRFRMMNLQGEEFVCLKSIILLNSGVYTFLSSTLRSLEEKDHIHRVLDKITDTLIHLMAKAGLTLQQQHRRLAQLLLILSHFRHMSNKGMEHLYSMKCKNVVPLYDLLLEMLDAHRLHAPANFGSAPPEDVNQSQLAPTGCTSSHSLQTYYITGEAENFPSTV
UniProt O75469: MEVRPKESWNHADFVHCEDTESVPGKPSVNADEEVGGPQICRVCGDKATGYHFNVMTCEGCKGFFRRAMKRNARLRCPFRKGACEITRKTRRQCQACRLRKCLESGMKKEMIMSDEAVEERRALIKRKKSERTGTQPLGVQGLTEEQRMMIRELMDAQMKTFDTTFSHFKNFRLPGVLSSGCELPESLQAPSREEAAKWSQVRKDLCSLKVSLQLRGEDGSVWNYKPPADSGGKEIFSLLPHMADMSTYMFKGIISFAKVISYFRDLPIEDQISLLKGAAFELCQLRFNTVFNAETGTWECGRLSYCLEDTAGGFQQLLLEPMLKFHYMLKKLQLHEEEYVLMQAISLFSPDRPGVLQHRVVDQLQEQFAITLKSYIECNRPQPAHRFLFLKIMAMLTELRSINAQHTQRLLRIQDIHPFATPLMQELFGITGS
UniProt P11712, whole entry, looked up: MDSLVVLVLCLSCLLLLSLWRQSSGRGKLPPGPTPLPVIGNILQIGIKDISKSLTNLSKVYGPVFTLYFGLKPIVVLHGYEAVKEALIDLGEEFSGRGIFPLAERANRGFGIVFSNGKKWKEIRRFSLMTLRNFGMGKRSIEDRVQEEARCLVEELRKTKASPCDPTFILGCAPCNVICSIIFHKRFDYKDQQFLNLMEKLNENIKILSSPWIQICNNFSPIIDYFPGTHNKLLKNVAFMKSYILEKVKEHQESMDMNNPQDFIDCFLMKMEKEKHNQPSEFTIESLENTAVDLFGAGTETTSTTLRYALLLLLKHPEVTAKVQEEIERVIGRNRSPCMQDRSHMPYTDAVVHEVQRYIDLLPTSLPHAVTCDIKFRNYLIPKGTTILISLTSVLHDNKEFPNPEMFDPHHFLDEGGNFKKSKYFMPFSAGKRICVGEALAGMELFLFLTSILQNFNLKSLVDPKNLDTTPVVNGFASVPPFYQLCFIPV
UniProt P04406: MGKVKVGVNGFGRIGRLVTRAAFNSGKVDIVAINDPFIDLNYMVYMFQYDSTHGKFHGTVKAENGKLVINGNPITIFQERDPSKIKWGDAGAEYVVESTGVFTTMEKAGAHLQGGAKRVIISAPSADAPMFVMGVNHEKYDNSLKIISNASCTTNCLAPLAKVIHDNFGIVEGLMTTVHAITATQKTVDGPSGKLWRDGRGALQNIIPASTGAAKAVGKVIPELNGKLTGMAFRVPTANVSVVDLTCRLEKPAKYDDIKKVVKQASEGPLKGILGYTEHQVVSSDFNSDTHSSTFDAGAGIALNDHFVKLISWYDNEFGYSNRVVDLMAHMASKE
UniProt P33261, whole entry, looked up: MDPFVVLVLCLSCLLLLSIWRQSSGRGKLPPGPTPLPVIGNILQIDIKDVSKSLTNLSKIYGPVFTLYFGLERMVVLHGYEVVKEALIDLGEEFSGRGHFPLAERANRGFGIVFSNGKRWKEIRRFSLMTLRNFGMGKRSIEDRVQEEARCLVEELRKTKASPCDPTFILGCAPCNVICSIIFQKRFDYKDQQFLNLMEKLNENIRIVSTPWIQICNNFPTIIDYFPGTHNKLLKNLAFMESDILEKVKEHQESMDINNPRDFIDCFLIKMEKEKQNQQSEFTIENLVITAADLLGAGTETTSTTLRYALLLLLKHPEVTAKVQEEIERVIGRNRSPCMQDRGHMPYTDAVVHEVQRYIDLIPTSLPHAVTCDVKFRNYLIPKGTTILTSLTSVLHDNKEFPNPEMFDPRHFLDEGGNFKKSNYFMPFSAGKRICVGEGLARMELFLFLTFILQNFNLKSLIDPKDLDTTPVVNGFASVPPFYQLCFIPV
UniProt P62508: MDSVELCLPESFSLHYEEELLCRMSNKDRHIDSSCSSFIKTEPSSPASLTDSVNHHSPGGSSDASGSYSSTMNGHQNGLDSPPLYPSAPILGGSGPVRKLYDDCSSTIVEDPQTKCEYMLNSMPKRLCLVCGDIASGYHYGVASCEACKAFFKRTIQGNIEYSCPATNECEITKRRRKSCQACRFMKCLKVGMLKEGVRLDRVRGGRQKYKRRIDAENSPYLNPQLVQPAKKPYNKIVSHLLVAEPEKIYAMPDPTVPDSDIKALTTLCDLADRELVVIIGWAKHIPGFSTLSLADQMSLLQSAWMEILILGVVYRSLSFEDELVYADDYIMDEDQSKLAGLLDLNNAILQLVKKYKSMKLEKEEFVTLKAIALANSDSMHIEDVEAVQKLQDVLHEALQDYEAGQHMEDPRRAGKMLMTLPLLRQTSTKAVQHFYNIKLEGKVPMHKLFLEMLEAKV
UniProt Q96RI1: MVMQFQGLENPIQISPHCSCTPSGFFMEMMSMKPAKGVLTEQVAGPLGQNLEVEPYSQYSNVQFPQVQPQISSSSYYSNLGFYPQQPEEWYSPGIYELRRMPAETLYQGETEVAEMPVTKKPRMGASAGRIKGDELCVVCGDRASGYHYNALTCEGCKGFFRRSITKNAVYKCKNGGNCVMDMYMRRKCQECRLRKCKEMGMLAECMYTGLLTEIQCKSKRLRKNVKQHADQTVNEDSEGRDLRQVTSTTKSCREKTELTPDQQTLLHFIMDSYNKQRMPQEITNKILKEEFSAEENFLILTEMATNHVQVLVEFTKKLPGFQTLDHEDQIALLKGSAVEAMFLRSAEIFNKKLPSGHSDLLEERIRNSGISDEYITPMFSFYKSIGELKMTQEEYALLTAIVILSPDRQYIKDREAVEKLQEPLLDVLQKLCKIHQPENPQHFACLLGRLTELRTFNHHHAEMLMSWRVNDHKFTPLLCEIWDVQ

[2] = target: Nuclear receptor subfamily 1 group I member 2 (Homo sapiens) (UniProt O75469); experiment: NVS_NR_hPXR: NovaScreen (NVS) Nuclear Receptor Binding Assay for human Pregnane X Receptor (PXR) (AID 2283365);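 also: a drop in FRET signal versus DMSO baseline means the compound binds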
Procedure, shortened: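 Cell-free TR-FRET binding assay with extracted human PXR protein, read 2 h after dosing. Primary screen run in duplicate at 25 uM, actives followed in concentration series; loss of signal fitted against DMSO baseline.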

[3] = Tanguay_ZF_120hpf_NC_legacy: (Legacy) Oregon State University Tanguay Lab 120 Hour Post-fertilization zebrafish Assay for Notochord and Tail Malformation (AID 2283656)
Procedure, shortened: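 Dechorionated 5D zebrafish, 1/well from 6 hpf; static exposure to 120 hpf, 28C, sealed, dark; final DMSO 0.64% v/v. NC scored binary (present/absent); dead embryos not scored. Fit vs DMSO baseline, gain direction.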

[4] = CLD_ACTIN_24hr: CellzDirect (CLD) Gene Expression Assay for Baseline Control (Actin) at 24 hours (AID 2283670)
Procedure, shortened: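 Primary human hepatocytes dosed over multiple concentrations with 0.2% DMSO vehicle; actin mRNA measured at 24 h by qNPA chemiluminescence. Background control endpoint, fitted as gain of signal versus DMSO.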

[5] = read-out: HMG-CoA synthase (HMGCS2), HMGCS2 (gene 3158); experiment: CLD_HMGCS2_6hr: CellzDirect (CLD) Gene Expression Assay for HMG-CoA synthase (HMGCS2) at 6 hours (AID 2283682);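 also: actives raise HMGCS2 transcript above the 0.2% DMSO vehicle baseline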
Procedure, shortened: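 Primary human hepatocytes dosed daily with fresh chemical, 0.2% DMSO vehicle; HMGCS2 mRNA measured at 6 h by qNPA chemiluminescence. Gain of signal fitted against DMSO; cytotoxicity flagged from phase-contrast morphology.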

[6] = read-out: Cytochrome P450 2C9 (Homo sapiens) (UniProt P11712); experiment: CLD_CYP2C9_24hr: CellzDirect (CLD) Gene Expression Assay for xenobiotic metabolism (CYP2C9) at 24 hours (AID 2283688);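 also: potency for induction meaning a rise in CYP2C9 mRNA over DMSO vehicle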
Procedure, shortened: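 Primary human hepatocytes from two donor preparations, dosed daily for two days at multiple concentrations; vehicle 0.2% DMSO. CYP2C9 mRNA induction at 24 h measured by qNPA chemiluminescence relative to DMSO; cytotoxicity annotated from morphology.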

[7] = read-out: HMG-CoA synthase (HMGCS2), HMGCS2 (gene 3158); experiment: CLD_HMGCS2_24hr: CellzDirect (CLD) Gene Expression Assay for HMG-CoA synthase (HMGCS2) at 24 hours (AID 2283691)
Procedure, shortened: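 Primary human hepatocytes from two donor preparations, dosed daily with fresh solutions; vehicle 0.2% DMSO, 24 h harvest. HMGCS2 mRNA quantified by qNPA with S1 nuclease digestion and chemiluminescence; gain fitted versus DMSO, cytotoxicity annotated by morphology.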

[8] = read-out: Glyceraldehyde-3-phosphate dehydrogenase (Homo sapiens) (UniProt P04406); experiment: CLD_GAPDH_24hr: CellzDirect (CLD) Gene Expression Assay for Baseline Control (Glyceraldehyde 3-phosphate dehydrogenase) at 24 hours (AID 2283692)
Procedure, shortened: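 Primary human hepatocytes (two donor preparations) dosed daily for two days, 0.2% DMSO vehicle; GAPDH mRNA measured at 24 h by qNPA chemiluminescence as a background control, gain-of-signal fitted against DMSO.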

[9] = read-out: Cytochrome P450 2C19 (Homo sapiens) (UniProt P33261); experiment: CLD_CYP2C19_48hr: CellzDirect (CLD) Gene Expression Assay for xenobiotic metabolism (CYP2C19) at 48 hours (AID 2283700);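 as to outcome: fitted upward so actives raise CYP2C19 mRNA above the 0.2% DMSO vehicle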
Procedure, shortened: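 Primary human hepatocytes (two donor preparations) dosed daily for two days, harvested at 48 h; CYP2C19 mRNA induction measured by qNPA chemiluminescence. Gain-of-signal fitted relative to 0.2% DMSO vehicle as baseline.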

[10] = read-out: Glyceraldehyde-3-phosphate dehydrogenase (Homo sapiens) (UniProt P04406); experiment: CLD_GAPDH_48hr: CellzDirect (CLD) Gene Expression Assay for Baseline Control (Glyceraldehyde 3-phosphate dehydrogenase) at 48 hours (AID 2283706);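 as to outcome: active means higher GAPDH mRNA than DMSO vehicle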
Procedure, shortened: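 Primary human hepatocytes dosed daily for two days with fresh chemical at multiple concentrations, 0.2% DMSO vehicle; GAPDH mRNA measured at 48 h by quantitative nuclease protection assay with chemiluminescence, fitted upward relative to DMSO as background control.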

[11] = read-out: organic anion transporter (SLCO1B1), SLCO1B1 (gene 10599); experiment: CLD_SLCO1B1_48hr: CellzDirect (CLD) Gene Expression Assay for organic anion transporter (SLCO1B1) at 48 hours (AID 2283707)
Procedure, shortened: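 Primary human hepatocytes from two donor preparations dosed daily for two days with multiple concentrations, 0.2% DMSO vehicle. SLCO1B1 mRNA at 48 h by quantitative nuclease protection assay, chemiluminescence; gain-of-signal fitted versus DMSO.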

[12] = read-out: HMG-CoA synthase (HMGCS2), HMGCS2 (gene 3158); experiment: CLD_HMGCS2_48hr: CellzDirect (CLD) Gene Expression Assay for HMG-CoA synthase (HMGCS2) at 48 hours (AID 2283711)
Procedure, shortened: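 Primary human hepatocytes from two donors dosed daily for two days, 0.2% DMSO vehicle. HMGCS2 mRNA measured 48 h after dosing by quantitative nuclease protection assay with chemiluminescent read-out; induction fitted relative to DMSO, cytotoxicity flagged by microscopy.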

[13] = target: Estrogen-related receptor gamma (Homo sapiens) (UniProt P62508); experiment: ATG_ERRg_TRANS: Attagene TRANS-FACTORIAL HepG2 Assay for human Estrogen-Related Receptor gamma (ERRg) (AID 2282977); settings: HepG2 Attagene TRANS reporter, ERRg transactivation;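 also: hits increase reporter signal over DMSO so potencies reflect activators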
Procedure, shortened: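 Transient HepG2 transfectants, 24 h compound exposure, GAL4-UAS reporter mRNA by RT-PCR/6-FAM labelling/capillary electrophoresis; positive direction vs DMSO.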

[14] = target: Bile acid receptor (Homo sapiens) (UniProt Q96RI1); experiment: OT_FXR_FXRSRC1_0480: Odyssey Thera (OT) 8-hour HEK293T Protein-Complementation Assay for Farnesoid X receptor/SRC-1 Co-activator (AID 2283383)
Procedure, shortened: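 Co-activator recruitment to FXR was measured in living HEK293T cells, where interaction of the two fused partners restored an active fluorescent reporter. Signal gain after 8 h treatment was referenced to DMSO.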

[15] = target: Bile acid receptor (Homo sapiens) (UniProt Q96RI1); experiment: OT_FXR_FXRSRC1_1440: Odyssey Thera (OT) 24-hour HEK293T Protein-Complementation Assay for Farnesoid X receptor/SRC-1 Co-activator (AID 2283384)
Procedure, shortened: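 Cell-based binding reporter: interaction of FXR with SRC-1 brings reporter fragments together, giving a fluorescence signal read 24 h after dosing of HEK293T cells.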

[16] = read-out: organic anion transporter (SLCO1B1), SLCO1B1 (gene 10599); experiment: CLD_SLCO1B1_6hr: CellzDirect (CLD) Gene Expression Assay for organic anion transporter (SLCO1B1) at 6 hours (AID 2283668);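 also: active means mRNA induction above DMSO baseline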
Procedure, shortened: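 Primary human hepatocytes dosed daily with test chemicals (multiple concentrations) in 0.2% DMSO vehicle; harvested at 6 h. SLCO1B1 mRNA quantified by qNPA chemiluminescence, fitted as gain-of-signal versus DMSO; cytotoxicity from phase-contrast morphology flagged alongside.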

[17] = CCTE_Deisenroth_AIME_384WELL_CTox_Active: Cytotoxicity Assessment (CTOX) in CCTE's 384-well Estrogen Receptor Transactivation Assay with AIME metabolic competence (metabolism positive), Deisenroth Lab (AID 2284037);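 also: chemicals first conditioned 2 h by alginate-bound induced rat liver S9 before cells; activity means signal loss indicating cell death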
Procedure, shortened: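 VM7Luc4E2 breast cells received medium pre-incubated 2 h with chemical over alginate microspheres holding induced male Sprague Dawley rat liver S9; viability read 24 h later by protease-substrate fluorescence. Loss of signal, bidirectional fit, 0.002–200 uM.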

[18] = Tanguay_ZF_120hpf_CIRC_legacy: (Legacy) Oregon State University Tanguay Lab 120 Hour Post-fertilization zebrafish Assay for Circulatory Malformation (AID 2283651)
Procedure, shortened: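 Using wild-type Tropical 5D zebrafish, we exposed dechorionated embryos from 6 to 120 hpf in embryo medium with 0.64% DMSO. Circulatory defects were scored as present or absent; 5uM trimethyltin chloride served as positive control.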

CCCN(CC)CC1COC2(CCC(C(C)(C)C)CC2)O1 (stereo not drawn)
AC50 [1]: inconclusive: 526 nM
outcome [2]: inactive
AC50 [3]: inconclusive: 25900 nM
outcome [4]: inactive
outcome [5]: inactive
AC50 [6]: inconclusive: 32.5 nM
AC50 [7]: active: 74.2 nM
outcome [8]: inactive
outcome [9]: inactive
outcome [10]: inactive
AC50 [11]: inconclusive: 20000 nM
outcome [12]: inactive

COP(=O)(OC)C(O)C(Cl)(Cl)Cl (stereo not drawn)
outcome [13]: inactive
outcome [14]: inactive
AC50 [15]: active: 25100 nM
outcome [16]: inactive
AC50 [5]: inconclusive: 0.4 nM
outcome [7]: inactive
AC50 [8]: inconclusive: 20000 nM
AC50 [10]: inconclusive: 98 nM
AC50 [11]: inconclusive: 71.6 nM
outcome [12]: inactive

c1ccc2c(c1)oc1ccccc12
AC50 [17]: inconclusive: 0.2 nM

CN(C)C(=O)Nc1cccc(C(F)(F)F)c1
outcome [18]: inactive
outcome [3]: inactive
AC50 [16]: inconclusive: 20000 nM
AC50 [4]: inconclusive: 3970 nM
AC50 [7]: inconclusive: 240 nM
AC50 [8]: inconclusive: 20000 nM
AC50 [9]: inconclusive: 20000 nM
outcome [11]: inactive
outcome [12]: inactive
AC50 [17]: inconclusive: 0.2 nM
